Measured values reported in patent US20260284208A1, “SYSTEM” (Oxford University Innovation Limited, priority 2023, published 2026).
This continues a long series; more values of the same kind are listed elsewhere.

Test system: library of 8,380 IKZF3 degrons (ZF-eGFP/mCherry reporter) in Jurkat cells
Test: Pooled library screen (FACS, NGS, limma voom LogFC of positive vs negative read counts)
Format: cell-based, human
Procedure: A library of 8,380 IKZF3 degrons was cloned into pLVX-Sprout to create the eGFP/mCherry protein degradation reporter plasmid pool. A lentivirus pool was then generated using the Lenti-X lentiviral vector production method.
Jurkat cells were transduced at a multiplicity of infection of <0.3 with the lentivirus vector library in order to maximise the number of cells with a single integration. Transductions were carried out in 6 well TC-treated cell culture dishes (Falcon) with 3×10^6 cells per well. Cells were incubated for 2 days at 37° C. and 5% CO2 before the supernatant was removed and replaced with fresh media. 6 days post-transduction, mCherry+ cells were isolated via FACS using the FACS Aria Fusion (BD) in a buffer containing PBS (Gibco), 2 mM EDTA (Gibco), 25 mM HEPES (Sigma) and 1% BSA (Sigma). 8 days later, cells were treated with DMSO or a thalidomide analog for 18 hours at 37° C. and 5% CO2. mCherry+GFPlow and NOT(mCherry+GFPlow) cells were sorted by FACS using the FACS Aria Fusion (BD). DMSO treated cells were used to set the mCherry+GFPlow gate and dead cells were excluded from sorting by staining cells with 1 μg/mL DAPI (ThermoFisher). gDNA was isolated using the Maxwell RSC 48 (Promega). gDNA from cells that were unsorted and untreated were also isolated to determine the library representation on the day of compound treatment. Throughout the screen >600× coverage of the library was maintained. 3 biological replicates were carried out with a new transduction taking place each time.
A two-step PCR was used where the first PCR (PCR1) amplified the integrated degron sequence from gDNA and the second PCR (PCR2) added Illumina adaptors and barcodes to permit multiplexing. See Supp F for PCR1 and PCR2 primers. Q5 Hot Start High-Fidelity 2× Master Mix (New England Biolabs) was used for both PCRs. Sufficient gDNA was amplified in PCR1 in order to maintain >600× coverage and amplicons were purified using solid phase reversible immobilization (SPRI) beads (Beckman Coulter). Purified PCR1 products were analysed on the Tapestation 4200 (Agilent) to confirm purity prior to proceeding to PCR2. Sufficient PCR1 product was amplified in PCR2 in order to maintain >600× coverage and amplicons were run on a 2% agarose TAE gel. Target bands were excised and purified using the NucleoSpin Gel and PCR Clean-up Kit (Machery Nagel). Amplicons were analysed on the Tapestation 4200 and quantified using Qubit dsDNA HS kit (ThermoFisher). PCR products were pooled and sequenced as paired-reads on the NovaSeq (Illumina) using a SP2 200 cycles kit (Illumina).
Count distributions, percentage of read mapping, library coverage and replicate correlation per sample were assessed for QC purposes.
To carry out the library screen, we used the same plasmid construct as in our earlier flow cytometry assays, but pooling all 8,380 mutants together into one Jurkat population, ensuring a copy number of one plasmid per cell (FIG. 4B). […] These GFP-negative cells were then separated from the remaining GFP-positive population using fluorescence activated cell sorting (FACS). These two populations were then sequenced and the relative abundance of every mutant in both populations compared to provide a log FC value for each mutant sequence. This value indicated how frequently a sequence is observed in the GFP-negative population relative to the GFP-positive population, and therefore how effective a degron it is for that particular IMID compound.

O=C1CCC(N2C(=O)c3ccc(N4CCOCC4)cc3C2=O)C(=O)N1 (stereo not shown) [B03]
B03_logFC (degron 4515 (SEQ ID NO 3620) 46F_47Y_49P_50I_52G_53A_54S_55F_67L): 3.432 | B03_logFC (degron 4516 (SEQ ID NO 3550) 46F_47Y_49P_50I_52G_53A_54T_55F_67L): 3.573 | B03_logFC (degron 4541 (SEQ ID NO 3633) 46F_47Y_49P_50V_52G_53A_54C_55F_67L): 3.401 | B03_logFC (degron 4546 (SEQ ID NO 3597) 46F_47Y_49P_50V_52G_53A_54H_55F_67L): 3.485 | B03_logFC (degron 4553 (SEQ ID NO 3522) 46F_47Y_49P_50V_52G_53A_54Q_55F_67L): 3.652 | B03_logFC (degron 4556 (SEQ ID NO 3638) 46F_47Y_49P_50V_52G_53A_54T_55F_67L): 3.381 | B03_logFC (degron 6540 (SEQ ID NO 3575) 46L_47F_49P_50I_52G_53F_54A_55C_67L): 3.521 | B03_logFC (degron 6541 (SEQ ID NO 3606) 46L_47F_49P_50I_52G_53F_54C_55C_67L): 3.463 | B03_logFC (degron 6555 (SEQ ID NO 3558) 46L_47F_49P_50I_52G_53F_54S_55C_67L): 3.556 | B03_logFC (degron 6556 (SEQ ID NO 3563) 46L_47F_49P_50I_52G_53F_54T_55C_67L): 3.545 | B03_logFC (degron 6595 (SEQ ID NO 3595) 46L_47H_49P_50I_52G_53F_54S_55C_67L): 3.488 | B03_logFC (degron 6732 (SEQ ID NO 3570) 46L_47R_49P_50I_52G_53F_54P_55C_67L): 3.536 | B03_logFC (degron 6775 (SEQ ID NO 3643) 46L_47T_49P_50I_52G_53F_54S_55C_67L): 3.371 | B03_logFC (degron 6795 (SEQ ID NO 3531) 46L_47V_49P_50I_52G_53F_545_55C_67L): 3.628 | B03_logFC (degron 6801 (SEQ ID NO 3589) 46L_47W_49P_50I_52G_53F_54C_55C_67L): 3.492 | B03_logFC (degron 6806 (SEQ ID NO 3568) 46L_47W_49P_50I_52G_53F_54H_55C_67L): 3.537 | B03_logFC (degron 6810 (SEQ ID NO 3642) 46L_47W_49P_50I_52G_53F_54M_55C_67L): 3.371 | B03_logFC (degron 6811 (SEQ ID NO 3587) 46L_47W_49P_50I_52G_53F_54N_55C_67L): 3.498 | B03_logFC (degron 6813 (SEQ ID NO 3576) 46L_47W_49P_50I_52G_53F_54Q_55C_67L): 3.516 | B03_logFC (degron 6815 (SEQ ID NO 3551) 46L_47W_49P_50I_52G_53F_54S_55C_67L): 3.567 | B03_logFC (degron 6816 (SEQ ID NO 3494) 46L_47W_49P_50I_52G_53F_54T_55C_67L): 3.712 | B03_logFC (degron 6821 (SEQ ID NO 3555) 46L_47Y_49P_50I_52G_53F_54C_55C_67L): 3.559 | B03_logFC (degron 6826 (SEQ ID NO 3594) 46L_47Y_49P_50I_52G_53F_54H_55C_67L): 3.488 | B03_logFC (degron 6833 (SEQ ID NO 3557) 46L_47Y_49P_50I_52G_53F_54Q_55C_67L): 3.557 | B03_logFC (degron 6834 (SEQ ID NO 3634) 46L_47Y_49P_50I_52G_53F_54R_55C_67L): 3.395 | B03_logFC (degron 6835 (SEQ ID NO 3493) 46L_47Y_49P_50I_52G_53F_54S_55C_67L): 3.721 | B03_logFC (degron 6836 (SEQ ID NO 3528) 46L_47Y_49P_50I_52G_53F_54T_55C_67L): 3.628 | B03_logFC (degron 6837 (SEQ ID NO 3590) 46L_47Y_49P_50I_52G_53F_54V_55C_67L): 3.492 | B03_logFC (degron 7681 (SEQ ID NO 3636) 46L_47F_49E_50I_52G_53F_54C_55C_67L): 3.386 | B03_logFC (degron 7693 (SEQ ID NO 3631) 46L_47F_49E_50I_52G_53F_54Q_55C_67L): 3.411 | B03_logFC (degron 7694 (SEQ ID NO 3525) 46L_47F_49E_50I_52G_53F_54R_55C_67L): 3.641 | B03_logFC (degron 7695 (SEQ ID NO 3580) 46L_47F_49E_50I_52G_53F_54S_55C_67L): 3.511 | B03_logFC (degron 7696 (SEQ ID NO 3510) 46L_47F_49E_50I_52G_53F_54T_55C_67L): 3.671 | B03_logFC (degron 7697 (SEQ ID NO 3611) 46L_47F_49E_50I_52G_53F_54V_55C_67L): 3.453 | B03_logFC (degron 7946 (SEQ ID NO 3598) 46L_47W_49E_50I_52G_53F_54H_55C_67L): 3.484 | B03_logFC (degron 7953 (SEQ ID NO 3588) 46L_47W_49E_50I_52G_53F_54Q_55C_67L): 3.493 | B03_logFC (degron 7954 (SEQ ID NO 3586) 46L_47W_49E_50I_52G_53F_54R_55C_67L): 3.499 | B03_logFC (degron 7955 (SEQ ID NO 3479) 46L_47W_49E_50I_52G_53F_54S_55C_67L): 3.789 | B03_logFC (degron 7956 (SEQ ID NO 3476) 46L_47W_49E_50I_52G_53F_54T_55C_67L): 3.795 | B03_logFC (degron 7960 (SEQ ID NO 3585) 46L_47Y_49E_50I_52G_53F_54A_55C_67L): 3.504 | B03_logFC (degron 7966 (SEQ ID NO 3627) 46L_47Y_49E_50I_52G_53F_54H_55C_67L): 3.418 | B03_logFC (degron 7974 (SEQ ID NO 3459) 46L_47Y_49E_50I_52G_53F_54R_55C_67L): 3.902 | B03_logFC (degron 7976 (SEQ ID NO 3583) 46L_47Y_49E_50I_52G_53F_54T_55C_67L): 3.508
